Source: ChEMBL document CHEMBL3988442, “University of Dundee, Small-Polar-MMV Screening Library” (2021).

By UniProt entry, the sequences of proteins in these tests, tags left out.
UniProt E9BF75, entry or part of it: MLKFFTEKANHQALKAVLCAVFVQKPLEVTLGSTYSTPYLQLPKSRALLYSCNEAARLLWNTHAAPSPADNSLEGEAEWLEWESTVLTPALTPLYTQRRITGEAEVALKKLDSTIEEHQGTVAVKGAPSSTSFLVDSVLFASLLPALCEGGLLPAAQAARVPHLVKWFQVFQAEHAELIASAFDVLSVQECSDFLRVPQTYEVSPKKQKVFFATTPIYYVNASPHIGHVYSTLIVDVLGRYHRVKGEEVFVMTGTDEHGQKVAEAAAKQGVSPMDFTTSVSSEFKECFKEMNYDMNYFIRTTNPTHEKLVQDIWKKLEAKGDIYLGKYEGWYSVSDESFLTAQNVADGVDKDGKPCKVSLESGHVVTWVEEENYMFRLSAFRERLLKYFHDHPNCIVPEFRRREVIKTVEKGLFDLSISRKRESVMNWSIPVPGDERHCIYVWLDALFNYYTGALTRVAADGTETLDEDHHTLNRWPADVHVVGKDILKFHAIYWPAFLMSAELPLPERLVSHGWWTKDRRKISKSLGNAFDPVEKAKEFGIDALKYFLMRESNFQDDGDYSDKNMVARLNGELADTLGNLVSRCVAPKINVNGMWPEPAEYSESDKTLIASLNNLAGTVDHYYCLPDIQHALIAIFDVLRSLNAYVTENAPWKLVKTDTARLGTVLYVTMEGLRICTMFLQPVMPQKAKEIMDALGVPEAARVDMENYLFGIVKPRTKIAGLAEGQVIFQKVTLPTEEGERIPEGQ

All values are in %. How 0% and 100% were set is not recorded. Most values in the screen are low, and negative values occur. This is an unselected part of the compounds tested.

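Primary screen of methionyl-tRNA synthetase; the read-out is not stated. Target: Methionyl-tRNA synthetase (putative), Leishmania donovani (UniProt E9BF75). The test concentration is not given. Values are per cent inhibition. About 68,000 compounds were tested under these conditions; 0.035% (about 24) showed 50% or more at least once.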

| # | structure | inhibition |
|---|---|---|
| 1 | `CC(NC(=O)CNc1cc2c(cc1Cl)OCCO2)c1ccco1` (stereo not shown) | 7.311 |
| 2 | `COc1cccc(C(=O)NC(c2ccccn2)[C@H]2CC[C@H](CN)CC2)c1` (stereo partly shown) | 14.35 |
| 3 | `CCCNC(=O)c1ncn2c1CN(CC(C)C)S(=O)(=O)c1ccccc1-2` | 5.397 |
| 4 | `COCCN1CCC(NCc2cccnc2)C1` (stereo not shown) | 3.644 |
| 5 | `Cc1noc(C)c1CC(=O)N1CCCC(Cn2ccnc2C)C1` (stereo not shown) | 17.34 |
| 6 | `CC(C)(C)N1CC(C(=O)N2CCN(CCc3ccccc3)CC2)CC1=O` (stereo not shown) | 10.73 |
| 7 | `CCC1(c2ccc(NS(=O)(=O)c3ccc(Cl)s3)cc2)CCC(=O)NC1=O` (stereo not shown) | 9.89 |
| 8 | `CCNc1ncc(C(=O)N[C@H]2CC[C@H](n3cnnc3)CC2)cn1` | 11.81 |
| 9 | `CC(=O)N1CCC(=O)N(C2CCCC2)Cc2ccccc21` | -0.8219 |
| 10 | `Cc1nc(Nc2nccs2)cc(C2CN(C(C)C)C2)n1` | 7.302 |
| 11 | `CCc1nc(C2CCCN2C(=O)c2ccc(N3CCCC3)nn2)no1` (stereo not shown) | 16.47 |
| 12 | `CCOC(C)c1nc(CN2CCNCC2)cs1` (stereo not shown) | 2.536 |
| 13 | `Cn1cnc(S(=O)(=O)N2C[C@H]3CN(Cc4cccnc4)C[C@H]3C2)c1` | -0.346 |
| 14 | `O=C1CSC(c2ccc(F)c(Cl)c2)c2c(n(C3CCOCC3)[nH]c2=O)N1` (stereo not shown) | 4.545 |
| 15 | `CS(=O)(=O)N1CCc2[nH]cnc2C12CCN(C1CCOCC1)CC2` | 0 |
| 16 | `CC(C)Cc1nc(COc2ccc(N(C)C(N)=O)cc2)no1` | 5.797 |
| 17 | `CCCc1nc(CN(C)CC2CCN(CCO)CC2)no1` | 11.41 |
| 18 | `C[C@H](O)CNC(=O)c1cnc(-c2ccccc2)nc1O` | 14.86 |
| 19 | `CCOc1ncccc1NC(=O)N1CCCC1c1cc(C)no1` (stereo not shown) | 9.971 |
| 20 | `Cc1ccc(-c2cnn(CC(=O)NC(C)C)c2)cc1` | 19.37 |
| 21 | `CN1CCN(Cc2ccncc2)C(=O)C12CCN(c1nccs1)CC2` | 9.058 |
| 22 | `O=C(CCn1ccnc1)N1CC[C@H](Oc2ccc(F)cc2)[C@@H](O)CC1` | 4.07 |
| 23 | `O=C(Cc1ccsc1)N1C[C@@H]2C[C@@H](c3nnc(C4CC4)o3)O[C@@H]2C1` | 6.164 |
| 24 | `O=C(NC[C@]12COC[C@H]1CN(Cc1cccc(F)c1)C2)c1ccco1` | 20.88 |
| 25 | `Cc1nc(CCCNC(=O)C2CC(=O)N(C3CCCC3)C2)sc1C` (stereo not shown) | 19.88 |
| 26 | `COC(=O)NCCCC(=O)NCC1(c2cccc(Cl)c2)CC1` | 12.54 |
| 27 | `O=C(Nc1cccnc1)[C@H]1CN(C2CCCC2)C[C@H]2OCC[C@@H]12` | 13.48 |
| 28 | `O=C(N[C@@H]1CCN(Cc2ccc(F)cc2F)C[C@H]1O)c1cccnc1` | 7.082 |
| 29 | `COCCCN(Cc1ccc(F)cc1Cl)C1CCS(=O)(=O)C1` (stereo not shown) | 6.997 |
| 30 | `CCc1onc(C)c1C(=O)N1CCN(c2ncc3c(n2)CCOC3)CC1` | 17.44 |
| 31 | `COc1ccc(C)cc1-n1cnnc1CC1CCNCC1` | 13.77 |
| 32 | `Cc1n[nH]c2c1C(c1ccc(O)cc1)SCC(=O)N2` (stereo not shown) | 9.044 |
| 33 | `CCc1ncc(CN2CCC(O)(c3ccccc3F)CC2)cn1` | 3.416 |
| 34 | `O=C(NCC1CC1)c1cnc(-c2ccccc2)nc1` | 9.253 |
| 35 | `Cc1cc(C(=O)N2CCCC2CN2CCCC2)no1` (stereo not shown) | 5.455 |
| 36 | `Fc1cnc(N2CCOCC3(CCCNC3)C2)nc1` (stereo not shown) | 7.299 |
| 37 | `Cc1nn(C)c(C)c1S(=O)(=O)N1CC[C@@H]2O[C@@H](C)C[C@H]2C1` | 9.524 |
| 38 | `O=C(Nc1cc(C(F)(F)F)c[nH]c1=O)N1CCSCC1` | 25.57 |
| 39 | `Cc1cccc(C)c1NC(=O)CC(CN1CCN(C)CC1)C(=O)O` (stereo not shown) | 17.16 |
| 40 | `O=C(Cc1ccon1)Nc1cncc(Br)c1O` | 5.974 |
| 41 | `CNC(=O)NC(=O)CCSCc1cc(F)cc2cccnc12` | 14.5 |
| 42 | `COCCN(Cc1ccc(F)cc1Cl)C(=O)c1csnn1` | 19.02 |
| 43 | `CC(=O)N1CCOCC2(CN(Cc3ccccn3)CCO2)C1` (stereo not shown) | 8.787 |
| 44 | `CCn1ncc2c1CCCC2NCc1ccc(OC)cc1OC` (stereo not shown) | 16.62 |
| 45 | `Cn1ccc(C(=O)NCc2ccc(N3CCCCCC3)nc2)cc1=O` | 18.79 |
| 46 | `CC(NC(=O)NCCN1CCCCCC1=O)c1ccc(Cl)s1` (stereo not shown) | 16.85 |
| 47 | `CC(C)c1nccn1C(C)C(=O)NC1CCN(S(C)(=O)=O)CC1` (stereo not shown) | 13.25 |
| 48 | `COC1CCN(c2ccc(NC(=O)C3CC3)cc2C(F)(F)F)CC1` | 14.08 |
| 49 | `CN(Cc1nnc(C2CC2)n1C)C1CCN(Cc2ccccc2)C1` (stereo not shown) | 1.418 |
| 50 | `CN1CCCC(Cc2cncc(C(=O)NCC3CC3)c2)C1` (stereo not shown) | 16.78 |
| 51 | `CCCc1noc(CN2CCC(N(C)Cc3nnc(C4CC4)o3)C2)n1` (stereo not shown) | 15.3 |
| 52 | `Cc1nc(-c2c(-c3ccccc3)ncn2CCCN2CCOCC2)c[nH]1` | -1.72 |
| 53 | `OCCCN1CCc2[nH]nc(C(c3ccccc3)c3ccccc3)c2C1` | 11.56 |
| 54 | `O=C(c1cccc(F)c1)N1CCN2C[C@H](OCc3cccnc3)C[C@H]2C1` | 12.89 |
| 55 | `Cn1cc(C2CC(=O)NC23CCN(c2ncc(F)cn2)CC3)cn1` (stereo not shown) | 8.787 |
| 56 | `Fc1ccc(-c2nnc(CN3CCn4c(nnc4C4CC4)C3)o2)cc1` | 12.59 |
| 57 | `CC(C)CNC(=O)C1=NOC2(CCN(Cc3cccc(C#N)c3)C2)C1` (stereo not shown) | 7.65 |
| 58 | `CC1(C)CN=C(N2CCN(CC3CCOC3)CC2)S1` (stereo not shown) | 17.76 |
| 59 | `Oc1cc(CCC2CCCCN2)cc(-c2ccncc2)c1` (stereo not shown) | 2.463 |
| 60 | `Cc1nccn1CC1CCCN(C(=O)Cc2ccsc2)C1` (stereo not shown) | 9.288 |
| 61 | `CC1CCN(c2ccc(CNC(=O)NCCn3ccnc3)cn2)CC1` | 4.485 |
| 62 | `CCCC(C)Sc1nnnn1C1CCOCC1` (stereo not shown) | 18.18 |
| 63 | `Cc1n[nH]c(C)c1CN1CCC(c2cc(C(C)C)n[nH]2)CC1` | 10.43 |
| 64 | `COCCN(Cc1cccc(OCCO)c1)Cc1ccccc1F` | 11.54 |
| 65 | `O=C(Nc1cccnc1N1CCSCC1)c1ccc2c(c1)CCO2` | -12.32 |
| 66 | `CC1(C)OC(=O)N(CC(=O)N2CCC(c3ccccc3F)C2)C1=O` (stereo not shown) | 17.14 |
| 67 | `Cc1cc(CN2CCN(c3ccc4nncn4n3)C(C)C2)no1` (stereo not shown) | 12.55 |
| 68 | `Cc1c[nH]nc1C1CN(c2cnccn2)CCO1` (stereo not shown) | 13.08 |
| 69 | `Cc1cc(N(C)C)nc(N2CCCC2c2cc(C)on2)n1` (stereo not shown) | 17.76 |
| 70 | `CC(C)CN(Cc1ccc(C(F)(F)F)nc1)Cc1cnn(C)c1` | 5.025 |
| 71 | `Cc1cc(C(=O)N2CC[C@H]3[C@H]2CCN3S(C)(=O)=O)c(C)o1` | 9.87 |
| 72 | `CCCN(CC)C(=O)c1cc2c(c3ccccc3n2C)n1C(=O)N(C)C` | 19.31 |
| 73 | `COCCn1ccnc1C1CCN(Cc2ccccc2C#N)CC1` | 19.16 |
| 74 | `O=C(c1ccccn1)N1CCC2(CC1)CN(c1cncnc1)C(=O)CO2` | 13.43 |
| 75 | `O=C1CC(C(=O)N2CCc3sccc3C2)CN1Cc1cccnc1` (stereo not shown) | 10.68 |
| 76 | `CNC(=O)c1ccc(NC(=O)NC(C)CCc2cccn2C)c(C)c1` (stereo not shown) | 16.31 |
| 77 | `Cc1ncncc1-c1ccnc(N(C)C)n1` | 10.44 |
| 78 | `CCc1ncc2c(n1)CN(C(=O)CCCc1ccc(OC)cc1)C2` | 2.133 |
| 79 | `COc1cccc(NC(=O)NCC(Cc2cnn(C)c2)C(N)=O)c1` (stereo not shown) | 7.246 |
| 80 | `CN(C)c1cccc(CNC(=O)Nc2ccc3[nH]nnc3c2)n1` | 5.759 |
| 81 | `CC(=O)N1CCC(c2nc3ccc(-c4ccnn4C)cn3n2)CC1` | 9.041 |
| 82 | `CC(C)[C@@H]1CN(c2ncc(F)cn2)C[C@H]1NC(=O)N(C)C` | 15.89 |
| 83 | `O[C@@H]1C[C@@](CNCC2CC2)(COc2cccnc2)C[C@@H]1O` | 8.475 |
| 84 | `Cn1ccnc1-c1noc(NCc2ccc(Cl)cc2)n1` | 22.06 |
| 85 | `Cc1cc(C(=O)N2C[C@H](C(C)C)[C@@H](N(C)C)C2)cs1` | 14.02 |
| 86 | `O=C(c1ccsc1)N1C[C@@H]2C[C@@H](c3nnc(C4CC4)o3)O[C@@H]2C1` | 17.65 |
| 87 | `Cc1occc1C(=O)N1CCC2(CCN(Cc3ccccn3)C2=O)C1` (stereo not shown) | 17.79 |
| 88 | `CC(C)COC(=O)N1CCCN(C(=O)c2ccnc(N(C)C)c2)CC1` | 12.42 |
| 89 | `c1ccc(CN2CCc3nnc(CN4CCCCC4)n3CC2)nc1` | 8.155 |
| 90 | `O=C1C[C@H]2[C@@H](CCN2C(=O)c2ccoc2)N1CCN1CCOCC1` | 12.5 |

Repeated from the top, 8 entries:

* CC(NC(=O)CNc1cc2c(cc1Cl)OCCO2)c1ccco1 (stereo not shown) | 7.311%
* COc1cccc(C(=O)NC(c2ccccn2)[C@H]2CC[C@H](CN)CC2)c1 (stereo partly shown) | 14.35%
* CCCNC(=O)c1ncn2c1CN(CC(C)C)S(=O)(=O)c1ccccc1-2 | 5.397%
* COCCN1CCC(NCc2cccnc2)C1 (stereo not shown) | 3.644%
* Cc1noc(C)c1CC(=O)N1CCCC(Cn2ccnc2C)C1 (stereo not shown) | 17.34%
* CC(C)(C)N1CC(C(=O)N2CCN(CCc3ccccc3)CC2)CC1=O (stereo not shown) | 10.73%
* CCC1(c2ccc(NS(=O)(=O)c3ccc(Cl)s3)cc2)CCC(=O)NC1=O (stereo not shown) | 9.89%
* CCNc1ncc(C(=O)N[C@H]2CC[C@H](n3cnnc3)CC2)cn1 | 11.81%